From patent US20040176568A1 (GENERAL HOSPITAL, published 2004)
No constants are given. Whether binding was seen depends on the method and setting. Some binding calls cover weakened binding; strength is not graded here.

T1: rat PTH-1 receptor (rat, UniProt P25961 27-591)
T1 sequence (looked up): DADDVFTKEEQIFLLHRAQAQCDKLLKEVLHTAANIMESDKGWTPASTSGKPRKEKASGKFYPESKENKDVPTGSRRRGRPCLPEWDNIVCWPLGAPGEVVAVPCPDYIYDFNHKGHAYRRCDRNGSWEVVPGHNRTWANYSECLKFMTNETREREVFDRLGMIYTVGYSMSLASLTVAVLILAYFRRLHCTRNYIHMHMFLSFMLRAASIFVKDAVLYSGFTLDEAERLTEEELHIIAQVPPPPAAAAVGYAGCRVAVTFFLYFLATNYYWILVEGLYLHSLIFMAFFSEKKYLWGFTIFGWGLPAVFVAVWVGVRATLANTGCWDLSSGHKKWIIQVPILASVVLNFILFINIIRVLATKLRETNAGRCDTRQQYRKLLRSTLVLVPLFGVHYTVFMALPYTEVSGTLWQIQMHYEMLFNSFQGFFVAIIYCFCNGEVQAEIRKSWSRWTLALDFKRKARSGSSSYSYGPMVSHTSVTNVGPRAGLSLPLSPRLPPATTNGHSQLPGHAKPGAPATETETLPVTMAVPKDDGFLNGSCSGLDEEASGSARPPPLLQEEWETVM

T2: human PTH-1 receptor (human, UniProt Q03431 27-593)
T2 sequence (looked up): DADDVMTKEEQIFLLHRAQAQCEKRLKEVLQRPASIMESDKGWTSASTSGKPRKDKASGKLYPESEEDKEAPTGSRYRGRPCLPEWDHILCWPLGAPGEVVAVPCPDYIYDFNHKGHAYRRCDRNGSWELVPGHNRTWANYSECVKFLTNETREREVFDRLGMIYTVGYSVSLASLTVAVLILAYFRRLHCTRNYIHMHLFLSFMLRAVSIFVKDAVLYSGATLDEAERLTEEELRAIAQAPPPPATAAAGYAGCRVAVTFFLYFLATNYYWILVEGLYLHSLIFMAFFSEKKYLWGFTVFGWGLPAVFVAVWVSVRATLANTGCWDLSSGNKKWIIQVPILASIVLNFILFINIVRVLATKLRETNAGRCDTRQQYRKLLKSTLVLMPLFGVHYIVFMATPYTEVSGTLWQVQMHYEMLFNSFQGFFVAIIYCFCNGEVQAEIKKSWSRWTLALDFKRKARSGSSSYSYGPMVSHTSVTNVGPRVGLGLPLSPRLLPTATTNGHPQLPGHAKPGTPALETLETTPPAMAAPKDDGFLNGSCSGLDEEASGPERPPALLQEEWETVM


How the values were obtained:
rat PTH-1 receptor = biological target: T1, rat PTH-1 receptor; assay: radioligand competition, EW5 cells (rat PTH-1 receptor)
Source text: (§1) Cell layers were washed three times before solubilization for determination of cell-associated radioactivity.

human PTH-1 receptor = biological target: T2, human PTH-1 receptor; assay: radioligand competition, HKRK B7 cells (human PTH-1 receptor)
Source text: as §1

| binding (rat PTH-1 receptor) | binding (human PTH-1 receptor) | Binder |
| --- | --- | --- |
| binds | binds | SVSEIQLMHNLGKHLNSMERVEWLRKKLQDVHNY (chain 1: C-terminal amide) [hPTH-(1-34)] |
| – | binds | VSEIQLMHNLGKHLNSMERVEWLRKKLQDVHNY (chain 1: C-terminal amide) [hPTH-(2-34)] |
